Source: publication PMC4825978, “A Hox Transcription Factor Collective Binds a Highly Conserved Distal-less cis-Regulatory Module to Generate Robust Transcriptional Outcomes”
No constants are given. Whether binding was seen depends on the method and setting. In cells and extracts the contact can be indirect. Binding calls can cover weak binding; strength is not graded here. Where a sequence is shown, tags or fusion partners need not be part of it. Each block holds one binder with its values, some of them ahead of it.

Key:
[1] = molecular target: his-Exd51A (Exd with homeodomain mutation N51A) (Drosophila); assay: co-purification; heterodimers purified from BL21 cells as previously described, one subunit His-tagged; confirmed by SDS-PAGE and Coomassie blue staining
[2] = molecular target: his-Hth∆HD (homeodomain-less Homothorax) (Drosophila); assay: as above

binding [1]: binds
B1: Hth of the his-Exd51A/Hth heterodimer (protein, UniProt O46339 1-487)
chain: MAQPRYDDGLHGYGMDSGAAAAAMYDPHAGHRPPGLQGLPSHHSPHMTHAAAAAATVGMHGYHSGAGGHGTPSHVSPVGNHLMGAIPEVHKRDKDAIYEHPLFPLLALIFEKCELATCTPREPGVQGGDVCSSESFNEDIAMFSKQIRSQKPYYTADPEVDSLMVQAIQVLRFHLLELEKVHELCDNFCHRYISCLKGKMPIDLVIDERDTTKPPELGSANGEGRSNADSTSHTDGASTPDVRPPSSSLSYGGAMNDDARSPGAGSTPGPLSQQPPALDTSDPDGKFLSSLNPSELTYDGRWCRREWSSPADARNADASRRLYSSVFLGSPDNFGTSASGDASNASIGSGEGTGEEDDDASGKKNQKKRGIFPKVATNILRAWLFQHLTHPYPSEDQKKQLAQDTGLTILQVNNWFINARRRIVQPMIDQSNRAVYTPHPGPSGYGHDAMGYMMDSQAHMMHRPPGDPGFHQGYPHYPPAEYYGQHL

binding [2]: binds
B2: untagged Exd (Extradenticle) (protein, UniProt P40427 1-376)
chain: MEDPNRMLAHTGGMMAPQGYGLSGQDDGQNAGSENEVRKQKDIGEILQQIMSISEQSLDEAQARKHTLNCHRMKPALFSVLCEIKEKTVLSIRNTQEEEPPDPQLMRLDNMLIAEGVAGPEKGGGGAAAASAAAASQGGSLSIDGADNAIEHSDYRAKLAQIRQIYHQELEKYEQACNEFTTHVMNLLREQSRTRPITPKEIERMVQIIHKKFSSIQMQLKQSTCEAVMILRSRFLDARRKRRNFSKQASEILNEYFYSHLSNPYPSEEAKEELARKCGITVSQVSNWFGNKRIRYKKNIGKAQEEANLYAAKKAAGASPYSMAGPPSGTTTPMMSPAPPQDSMGYPMGSGGYDQQQPYDNSMGGYDPNLHQDLSP
